Some of the results follow. Further columns of the screen follow, without active or inactive calls. Most of these compounds were active or inconclusive in the main read-out, so they are no random draw. Potencies come from curve fits of mixed quality, noted in brackets.
Assay: qHTS Assay for Lipid Storage Modulators in Drosophila S3 Cells;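 for cell number change: cells counted by Cell Tracker Red CMTPX staining in the red channel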
Details: BODIPY lipid droplet fluorescence, 18-24 h; for cell number change: measured here: cell count max response, cells fed with added oleic acid
Summary of the method: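 Drosophila S3 cells loaded with oleic acid (400 uM, as added) and compounds at several concentrations; lipid droplets imaged by 488-nm laser-scanning cytometry, 500–530 nm intensity and object ratio to cell channel. Percent activity normalized to 20 uM Triacsin C.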

[1] = measured here: cell number channel AC50, cells fed with added oleic acid
[2] = measured here: lipid fluorescence (Fed channel) AC50, cells fed with added oleic acid

COC(=O)c1ccc([C@@H](O)[C@H](C)C(=O)CC(=O)OC(C)(C)C)cc1
cell number change: 28.1%

CCCCn1c2c(c(=N)c3ccccc31)CCC2
cell number change: -32.7%
AC50 [1]: 16.4 µM [falling, single point]
AC50 [2]: 1.3 µM [rising, partial curve]

O=C(Cn1cc([N+](=O)[O-])cn1)Nc1ccc(Cn2cc(Br)cn2)cc1
cell number change: 5.14%
AC50 [2]: 3.66 µM [rising, full curve, poor fit]

COc1ccc(C(=O)Nc2cc(C(F)(F)F)ccc2-n2cncn2)cc1
AC50 [2]: 29.1 µM [falling, single point]

COCCNCC(=O)N1c2ccccc2Sc2ccccc21
cell number change: 2.36%
AC50 [2]: 6.51 µM [falling, single point]

CCOc1ccc(CCNc2nc3c(c(=O)n(C)c(=O)n3C)n2CC)cc1OCC
cell number change: 88.6%

CCOc1ccc(OCC)c(S(=O)(=O)NC2CC(C)(C)NC(C)(C)C2)c1
cell number change: 2.29%
AC50 [2]: 5.8 µM [rising, partial curve, poor fit]

Oc1ccc(/C=N/Nc2nccnc2Cl)c(O)c1
AC50 [1]: 6.51 µM [rising, single point]

O=C(NCc1ccc2c(c1)OCO2)c1ccc(N2CCCC2=O)cc1
cell number change: 44.4%
AC50 [1]: 0.058 µM [rising, full curve]
AC50 [2]: 18.4 µM [rising, partial curve]

Cc1cc(C)n2nc(C(=O)OCC(=O)N(Cc3ccccc3)C(C)C)nc2n1
cell number change: -3.5%

Cn1c(NC(=O)C2CCCC2)cc(=O)n(C)c1=O
AC50 [2]: 0.00517 µM [falling, full curve, poor fit]

Cc1ccc(NC(=O)C2CCN(S(=O)(=O)c3c(C)n[nH]c3C)CC2)nc1
cell number change: -15.7%
AC50 [2]: 6.51 µM [falling, single point]

Cc1ccc(-c2c(C#N)c(N)n(-c3ccccc3)c(=O)c2C#N)cc1
cell number change: -22.1%
AC50 [2]: 29.1 µM [falling, single point]

O=S(=O)(Nc1cccc(-c2nnco2)c1)c1ccc(F)cc1F
cell number change: 15.3%
AC50 [1]: 2.91 µM [rising, partial curve, poor fit]
AC50 [2]: 2.06 µM [rising, partial curve]

C[C@H]([C@@H](N)C(=O)N[C@@H](C(=O)O)[C@@H]1O[C@H](n2ccc(=O)[nH]c2=O)[C@@H](O)[C@H]1O)[C@@H](O)c1ccc(O)cn1
cell number change: -2.9%
AC50 [2]: 6.51 µM [rising, single point]

C=CCOc1ccc(/C=C/C(=O)OCc2csc(CC(=O)Nc3ccccc3C)n2)cc1
cell number change: 69.5%
AC50 [1]: 9.2 µM [rising, partial curve]
AC50 [2]: 1.64 µM [falling, partial curve]

COc1ccc(OC(=O)COc2cc(C)ccc2C)cc1
cell number change: -4.95%

O=C(/C=C/c1ccc(OCc2ccccc2)c(OCc2ccccc2)c1)c1cccnc1
cell number change: -58.3%
AC50 [1]: 32.6 µM [falling, partial curve]
AC50 [2]: 29.1 µM [falling, single point]

CSc1sc(C(=O)NC(=O)NCc2ccncc2)c(C)c1-c1ccon1
cell number change: -9.38%
AC50 [1]: 0.0082 µM [falling, full curve, poor fit]

COc1ccc2oc(=N)c(C(=O)Nc3ccccc3)cc2c1
AC50 [1]: 5.8 µM [rising, single point]
AC50 [2]: 6.51 µM [rising, partial curve]

COc1ccc(CC(=O)Nc2nc(-c3ccccc3)c(C(C)=O)s2)cc1OC
cell number change: -31.4%
AC50 [1]: 29.1 µM [falling, single point]

Cc1ccc(N(C(=O)c2csnn2)C(C(=O)NC2CCCC2)c2ccccn2)cc1 (stereo unspecified)
cell number change: 3.75%
AC50 [2]: 1.16 µM [falling, single point]

Cc1ccc(CSc2cc(C)[nH]c(=O)n2)cc1
cell number change: -8.78%
AC50 [1]: 0.103 µM [falling, full curve, poor fit]

CN1CCCN(CC(O)COCc2cccs2)CC1 (stereo unspecified)
cell number change: -17.9%
AC50 [1]: 0.517 µM [falling, full curve, poor fit]
AC50 [2]: 0.92 µM [falling, full curve]

S=C(NCCc1ccccc1)N/N=C/C1CCCCC1
cell number change: 6.83%
AC50 [1]: 0.146 µM [rising, full curve, poor fit]
AC50 [2]: 0.103 µM [rising, full curve, poor fit]

COCc1nc2c([nH]1)c(=O)n(C)c(=O)n2CC(C)C
cell number change: 27%

CCOC(=O)C1CCN(C(=O)C2CCN(c3ncnc4c3nc3n4CCCCC3)CC2)CC1
AC50 [2]: 29.1 µM [falling, single point]

Cc1ccccc1C(=O)Nc1nnc(-c2ccc(C(C)(C)C)cc2)s1
cell number change: -3.17%
AC50 [2]: 0.116 µM [falling, full curve, poor fit]

Cc1nn2c(-c3ccc(S(=O)(=O)N4CCN(C)CC4)o3)nnc2c2ccccc12
cell number change: -20.5%

CCOC(=O)c1c(C)[nH]c(C(=O)CSc2nnnn2-c2ccccc2)c1C
AC50 [1]: 6.51 µM [rising, single point]

COc1ccc(-c2csc(NC(=S)NC(=O)c3cccs3)n2)cc1Br
AC50 [2]: 1.3 µM [falling, full curve, poor fit]

COc1ccc(CNC(=O)c2ccc(NS(=O)(=O)c3ccc4[nH]c(=O)[nH]c4c3)cc2)cc1OC
cell number change: -5.56%
AC50 [2]: 6.51 µM [falling, single point]

CCc1noc(C)c1C(=O)NCCc1ccc(F)cc1
cell number change: 24.5%

COc1ccccc1NC(=O)COc1cc(C)nc(C(C)C)n1
cell number change: 8.18%
AC50 [2]: 16.4 µM [rising, partial curve]

COc1ccc(NC(=O)CSc2nncc3ccccc23)cc1
AC50 [1]: 0.13 µM [rising, full curve, poor fit]
AC50 [2]: 0.326 µM [rising, full curve, poor fit]

Cn1nnnc1N=N/C(=N/Nc1ccccc1)c1ccccc1
cell number change: -64.7%
AC50 [1]: 6.51 µM [falling, partial curve]
AC50 [2]: 5.8 µM [falling, full curve]

COC(=O)COc1ccc(S(=O)(=O)N2CCN(c3ccc(F)cc3)CC2)cc1
cell number change: 6.87%
AC50 [2]: 0.731 µM [falling, full curve, poor fit]

CCCNC(=O)Cc1c(OC)ccc2cc(Br)ccc12
cell number change: 14.7%
AC50 [2]: 29.1 µM [rising, single point]
